Data source: PubChem BioAssay AID1224830 (NIAID, 2016)

- Purpose: 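Genes whose knock-down alters the TNF-alpha reporter response to LPS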 (primary screen)
- Cells: human THP-1 monocytic leukaemia cells, TNF dual-luciferase reporter clone, PMA-differentiated to macrophage-like cells
- Knock-down reagent: siRNA pool against human genes, 50 nM
- Duration: LPS for 4 h, given about 3 days after siRNA transfection
- Conditions: bacterial LPS (TLR4 ligand), 10 ng/ml
- Read-out: 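Ratio of firefly to renilla light, scaled to the plate median and expressed as a robust z-score per replicate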
- Scale: TNF reporter robust z-score: higher = stronger TNF reporter response to LPS
- Hit rule: 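Each well counts as active if its z-score is over 2.8 or under -1.5; controls are left without a call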
In all, the deposit lists about 18,000 reagents; shown is a part drawn at random. About 2,900 of them (16%) were called active. 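Calls are made per well; low scores hint the gene aids the LPS response, high scores that it dampens it.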 Unmarked entries are inactive. Repeated entries: four replicate wells of each siRNA pool.

Target gene	TNF reporter robust z-score
SLC43A2	-0.49
SLC43A2	0.02
SLC43A2	-0.72
SLC43A2	-0.27
ARID3C	0.99
ARID3C	2.28
ARID3C	1.23
ARID3C	-0.43
NMNAT1	-0.8
NMNAT1	-0.76
NMNAT1	-0.83
NMNAT1	-0.97
HOXB8	-0.9
HOXB8	-1.52 (active)
HOXB8	-1.22
PRAP1	0.16
PRAP1	-0.13
PRAP1	-0.04
PRAP1	-1.29
FBLN5	-0.79
FBLN5	-0.51
FBLN5	-0.41
FBLN5	0.37
NTN4	0
NTN4	0.43
NTN4	0.34
NTN4	1.5

Continued:
Target gene	TNF reporter robust z-score
NKX3-1	-0.42
NKX3-1	0.51
NKX3-1	0.38
NKX3-1	0.67
ADAMTS16	-1.1
ADAMTS16	-0.07
ADAMTS16	-0.86
ADAMTS16	-1.07
FAHD1	-1.19
FAHD1	1.14
FAHD1	-0.26
FAHD1	3.04 (active)
FEM1B	-0.25
FEM1B	-1.02
FEM1B	-0.58
FEM1B	-0.23
CNPY2	-0.4
CNPY2	0.67
CNPY2	-0.31
CNPY2	-0.25
LPAR2	-0.22
LPAR2	2.12
LPAR2	1.06
LPAR2	1.25
IFNGR2	0.89
IFNGR2	1.63
IFNGR2	1
IFNGR2	2.05
TMEM53	-0.87
TMEM53	0.3
TMEM53	0.53
TMEM53	-1.05
ZBTB26	-0.39
ZBTB26	-0.01
ZBTB26	-0.06
ZBTB26	0.3
DOCK8-AS1	0.33
DOCK8-AS1	0.48
DOCK8-AS1	0.59
DOCK8-AS1	-0.18
FLYWCH2	-0.08
FLYWCH2	-0.36
FLYWCH2	-1.11
FLYWCH2	-1.26
SLCO3A1	1.07
SLCO3A1	0.37
SLCO3A1	0.43
SLCO3A1	0.4
